Measured values: article PMC4619884
Where two headings read alike, the source gives them in different places. These are yes or no findings as the source states them, for the method shown. Binding seen in cells or lysates may run through a third protein. Some entries that bind do so weakly or less than the wild type.

Sequences of proteins named here, by UniProt entry; tags and fusion partners are left off.
UniProt P47746: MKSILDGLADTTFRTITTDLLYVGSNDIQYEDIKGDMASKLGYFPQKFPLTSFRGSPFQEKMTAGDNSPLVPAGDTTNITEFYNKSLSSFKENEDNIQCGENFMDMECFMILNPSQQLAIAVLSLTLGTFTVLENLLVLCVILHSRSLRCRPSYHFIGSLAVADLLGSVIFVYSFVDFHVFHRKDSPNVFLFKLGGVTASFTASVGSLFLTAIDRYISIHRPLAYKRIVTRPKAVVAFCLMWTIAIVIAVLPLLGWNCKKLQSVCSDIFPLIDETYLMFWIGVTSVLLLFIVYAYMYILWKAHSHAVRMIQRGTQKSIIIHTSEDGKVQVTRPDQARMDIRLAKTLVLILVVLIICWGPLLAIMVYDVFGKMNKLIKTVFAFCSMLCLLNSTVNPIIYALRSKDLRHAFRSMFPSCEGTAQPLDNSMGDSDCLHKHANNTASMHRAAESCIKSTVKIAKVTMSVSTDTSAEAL
UniProt Q5SQX6: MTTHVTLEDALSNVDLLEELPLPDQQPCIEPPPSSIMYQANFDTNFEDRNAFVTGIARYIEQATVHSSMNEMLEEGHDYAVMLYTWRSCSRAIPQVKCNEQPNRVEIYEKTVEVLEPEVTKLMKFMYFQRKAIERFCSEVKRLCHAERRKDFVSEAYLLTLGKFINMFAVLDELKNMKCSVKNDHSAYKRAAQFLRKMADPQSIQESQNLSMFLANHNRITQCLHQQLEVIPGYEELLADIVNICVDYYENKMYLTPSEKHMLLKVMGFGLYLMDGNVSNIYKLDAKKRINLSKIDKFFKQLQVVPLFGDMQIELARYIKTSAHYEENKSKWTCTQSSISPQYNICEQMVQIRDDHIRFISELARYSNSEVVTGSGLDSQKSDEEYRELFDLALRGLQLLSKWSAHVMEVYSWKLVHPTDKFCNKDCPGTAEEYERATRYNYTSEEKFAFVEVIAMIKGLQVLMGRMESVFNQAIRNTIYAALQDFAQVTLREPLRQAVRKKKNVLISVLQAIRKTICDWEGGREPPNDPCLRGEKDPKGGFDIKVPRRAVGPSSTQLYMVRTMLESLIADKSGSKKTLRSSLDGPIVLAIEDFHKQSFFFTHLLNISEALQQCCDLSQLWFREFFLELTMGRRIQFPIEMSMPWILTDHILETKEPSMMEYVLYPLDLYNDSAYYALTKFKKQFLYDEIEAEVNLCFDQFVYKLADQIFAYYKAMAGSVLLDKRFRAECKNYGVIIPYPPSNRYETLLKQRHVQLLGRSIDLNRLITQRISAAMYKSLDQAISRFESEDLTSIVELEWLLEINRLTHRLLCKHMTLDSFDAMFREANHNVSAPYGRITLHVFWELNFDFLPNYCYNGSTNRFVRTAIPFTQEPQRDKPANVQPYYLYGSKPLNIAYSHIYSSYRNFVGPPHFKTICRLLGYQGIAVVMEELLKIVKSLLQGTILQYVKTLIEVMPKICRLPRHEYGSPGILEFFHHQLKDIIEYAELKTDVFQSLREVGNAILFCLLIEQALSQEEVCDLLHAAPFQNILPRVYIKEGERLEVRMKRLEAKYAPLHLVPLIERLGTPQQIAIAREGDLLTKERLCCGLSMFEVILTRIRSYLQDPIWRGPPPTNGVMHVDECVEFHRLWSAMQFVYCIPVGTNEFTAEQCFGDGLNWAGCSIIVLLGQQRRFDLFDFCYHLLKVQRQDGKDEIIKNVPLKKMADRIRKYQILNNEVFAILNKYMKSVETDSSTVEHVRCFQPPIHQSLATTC

Legend:
[1] = target: EGFP-tagged CB1 receptor (cannabinoid type 1 receptor), expressed from rAAV in mouse cortex (UniProt P47746); assay: co-IP; GFP-nanotrap beads on Na-cholate-solubilised cortical membrane fractions of mice expressing CB1-EGFP or GFP (control), at least 2 h at 4°C; immunoblot
[2] = target: EGFP-tagged CB1 receptor, transfected in HEK293 cells (UniProt P47746); assay: co-IP; GFP-nanotrap on HEK293 cells transfected with CB1-EGFP or GFP alone, solubilised with Na-cholate; immunoblot for endogenous WAVE1
[3] = target: EGFP-tagged CB1 receptor (cannabinoid type 1 receptor), expressed from rAAV in mouse cortex (UniProt P47746); assay: co-IP; GFP-nanotrap beads on Na-cholate-solubilised cortical membrane fractions of mice expressing CB1-EGFP or GFP (control), at least 2 h at 4°C; immunoblot; remark: listed apart in the source
[4] = target: endogenous CB1 receptor (cannabinoid type 1 receptor) of mouse cortex (mouse (endogenous in cortex)) (UniProt P47746); assay: co-IP; protein A/G PLUS agarose beads coupled with rabbit α-CB1 on solubilised cortical lysates of wild-type or CB1-/- mice, overnight at 4°C; immunoblot for WAVE1

| binding [1] | binding [3] | Molecule | also measured |
| --- | --- | --- | --- |
| binds | – | cytoplasmic FMR1-interacting protein 2 (CYFIP2), endogenous in mouse cortex (from UniProt Q5SQX6 1-1253) | – |
| binds | – | endogenous CB1 receptor (cannabinoid type 1 receptor) of mouse cortex (from UniProt P47746 1-473) | – |

Further lines, the molecule ahead of its results:

| Molecule | binding [1] | binding [3] | also measured |
| --- | --- | --- | --- |
| WAVE1, endogenous in HEK293 cells (from UniProt Q92558 1-559) | – | – | binding [2]: binds |
| Wiskott-Aldrich syndrome protein-family verprolin-homologous protein 1 (WAVE1), endogenous in mouse cortex (protein, UniProt Q8R5H6 1-559) MPLVKRNIDPRHLCHTALPRGIKNELECVTNISLANIIRQLSSLSKYAEDIFGELFNEAHSFSFRVNSLQERVDRLSVSVTQLDPKEEELSLQDITMRKAFRSSTIQDQQLFDRKTLPIPLQETYDVCEQPPPLNILTPYRDDGKEGLKFYTNPSYFFDLWKEKMLQDTEDKRKEKRKQKQKNLDRPHEPEKVPRAPHDRRREWQKLAQGPELAEDDADLLHKHIEVANGPASHYETRPQTYVDHMDGSYSLSALPFSQMSELLTRAEERVLVRPHEPPPPPPMHGAGDAKPTPTCISSATGLIENRPQSPAAGRTPVFVSPTPPPPPPPLPSALSTSSLRASMTSTPPPPVPPPPPPPATALQAPAVPPPPAPLQIAPGVLHPAPPPIAPPLVQPSPPVARAAPVCETVPVHPLPQGEVQGLPPPPPPPPLPPPGIRPSSPVAVAALAHPPSGLHPAPSTAPGPHAPLMPPSPPSQVLPASEPKRHPSTLPVISDARSVLLEAIRKGIQLRKVEEQREQEAKHERIENDVATILSRRIAVEYSDSEDDSEFDEVDWLE | – | binds | binding [4]: binds |
| NCK-associated protein 1 (NCKAP1), endogenous in mouse cortex (protein, UniProt P28660 1-1128) MSRSVLQPSQQKLAEKLTILNDRGVGMLTRLYNIKKACGDPKAKPSYLIDKNLESAVKFIVRKFPAVETRNNNQQLAQLQKEKSEILKNLALYYFTFVDVMEFKDHVCDLLNTIDVCQVFFDITVNFDLTKNYLDLTVTYTTLMILLSRIEERKAIIGLYNYAHEMTHGASDREYPRLGQMIVDYENPLKKMMEEFVPHSKSLSDALISLQMVYPRRNLSADQWRNAQLLSLISAPSTMLNPAQSDTMPCEYLSLDAMEKWIIFGFILCHGMLNTEATALNLWKLALQSSSCLSLFRDEVFHIHKAAEDLFVNIRGYNKRINDIRECKEAAVSHAGSMHRERRKFLRSALKELATVLSDQPGLLGPKALFVFMALSFARDEIIWLLRHADNMPKKSADDFIDKHIAELIFYMEELRAHVRKYGPVMQRYYVQYLSGFDAVVLNELVQNLSVCPEDESIIMSSFVNTMTSLSVKQVEDGEVFDFRGMRLDWFRLQAYTSVSKASLSLADHRELGKMMNTIIFHTKMVDSLVEMLVETSDLSIFCFYSRAFEKMFQQCLELPSQSRYSIAFPLLCTHFMSCTHELCPEERHHIGDRSLSLCNMFLDEMAKQARNLITDICTEQCTLSDQLLPKHCAKTISQAVNKKSKKQTGKKGEPEREKPGVESMRKNRLVVTNLDKLHTALSELCFSINYVPNMAVWEHTFTPREYLTSHLEIRFTKSIVGMTMYNQATQEIAKPSELLTSVRAYMTVLQSIENYVQIDITRVFNNVLLQQTQHLDSHGEPTITSLYTNWYLETLLRQVSNGHIAYFPAMKAFVNLPTENELTFNAEEYSDISEMRSLSELLGPYGMKFLSESLMWHISSQVAELKKLVVENVDVLTQMRTSFDKPDQMAALFKRLSSVDSVLKRMTIIGVILSFRSLAQEALRDVLSYHIPFLVSSIEDFKDHIPRETDMKVAMNVYELSSAAGLPCEIDPALVVALSSQKSENISPEEEYKIACLLMVFVAVSLPTLASNVMSQYSPAIEGHCNNIHCLAKAINQIAAALFTIHKGSIEDRLKEFLALASSSLLKIGQETDKTTTRNRESVYLLLDMIVQESPFLTMDLLESCFPYVLLRNAYHAVYKQSVTSSA | – | binds | – |
